For assay [1], the target named is proliferating cell nuclear antigen (PCNA) (human (endogenous in U2OS)) (UniProt P12004). In words: co-IP; U2OS extract, anti-PCNA antibody and Protein G beads, 4°C; cells treated with control or Face1 siRNA (prelamin A accumulation; lamins A/C precipitated reduced by approximately 25%), with or without doxorubicin; western blot.
For a further assay, the target named is GST-lamin A (UniProt P02545). In words: pull-down; GST-lamin A as bait, GST alone as control; with or without UV-induced DNA lesions; western blot; performed as previously described (ref. 42); only the target purified.
The target of assay [2] is lamin A (mature, of lamins A/C) (human (endogenous in U2OS)) (UniProt P02545). The assay is described as follows: co-IP; reverse IP: U2OS extract, anti-Lamin A/C antibody and Protein G beads, 4°C; cells with or without prelamin A accumulation (less PCNA with prelamin A); western blot.
Assay [3] has as its target lamin C (of lamins A/C) (human (endogenous in U2OS)) (UniProt P02545). Described as above.
In assay [4] the target is FLAG-tagged uncleavable form of prelamin A mutated within the Zmpste24 cleavage site (L647R) (UniProt P02545). In words: co-IP; U2OS cells transduced with FLAG-tagged UCLA or EGFP; lysate in IP buffer (10 mM Tris pH 7.5, 150 mM NaCl, 1 mM EDTA, 1% Triton X-100); ANTI-Flag M2 Affinity Gel, 4°C, 2 h; western blot.

The chains behind the UniProt entries cited, without tags or fusion partners. Where a name states a change or a piece, a line headed by the entry shows the natural chain unless it says otherwise. A line that says so, or that is headed by a name, gives the form on record, which may keep a tag or linker. Residues count along the entry.
UniProt P12004: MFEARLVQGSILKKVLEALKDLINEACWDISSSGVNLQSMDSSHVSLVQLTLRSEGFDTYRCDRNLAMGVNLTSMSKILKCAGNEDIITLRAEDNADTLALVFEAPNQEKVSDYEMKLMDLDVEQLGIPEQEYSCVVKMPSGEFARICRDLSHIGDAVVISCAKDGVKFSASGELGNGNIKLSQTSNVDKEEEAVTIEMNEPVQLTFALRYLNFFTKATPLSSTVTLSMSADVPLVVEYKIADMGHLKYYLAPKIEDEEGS
UniProt P02545: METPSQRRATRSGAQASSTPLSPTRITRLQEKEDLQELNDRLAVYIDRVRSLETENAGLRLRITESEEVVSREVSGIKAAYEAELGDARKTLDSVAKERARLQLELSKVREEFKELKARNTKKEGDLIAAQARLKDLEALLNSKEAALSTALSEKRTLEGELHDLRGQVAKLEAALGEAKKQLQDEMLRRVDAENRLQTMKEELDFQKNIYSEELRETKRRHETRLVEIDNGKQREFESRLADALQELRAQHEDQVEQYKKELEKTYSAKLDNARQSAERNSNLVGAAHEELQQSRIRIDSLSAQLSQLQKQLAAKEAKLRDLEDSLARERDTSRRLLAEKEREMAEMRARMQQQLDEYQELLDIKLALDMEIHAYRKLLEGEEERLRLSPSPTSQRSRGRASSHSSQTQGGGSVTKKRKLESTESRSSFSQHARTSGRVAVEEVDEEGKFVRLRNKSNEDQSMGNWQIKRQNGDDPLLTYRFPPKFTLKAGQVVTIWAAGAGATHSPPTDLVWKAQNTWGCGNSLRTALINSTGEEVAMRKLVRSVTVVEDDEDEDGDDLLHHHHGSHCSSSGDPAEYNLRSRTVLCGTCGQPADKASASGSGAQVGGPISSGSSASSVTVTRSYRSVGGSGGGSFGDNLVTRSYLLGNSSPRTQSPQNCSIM
GST-lamin A: residues 1-646 of P02545
lamin C (of lamins A/C) (human (endogenous in U2OS)) (P02545-2, form named): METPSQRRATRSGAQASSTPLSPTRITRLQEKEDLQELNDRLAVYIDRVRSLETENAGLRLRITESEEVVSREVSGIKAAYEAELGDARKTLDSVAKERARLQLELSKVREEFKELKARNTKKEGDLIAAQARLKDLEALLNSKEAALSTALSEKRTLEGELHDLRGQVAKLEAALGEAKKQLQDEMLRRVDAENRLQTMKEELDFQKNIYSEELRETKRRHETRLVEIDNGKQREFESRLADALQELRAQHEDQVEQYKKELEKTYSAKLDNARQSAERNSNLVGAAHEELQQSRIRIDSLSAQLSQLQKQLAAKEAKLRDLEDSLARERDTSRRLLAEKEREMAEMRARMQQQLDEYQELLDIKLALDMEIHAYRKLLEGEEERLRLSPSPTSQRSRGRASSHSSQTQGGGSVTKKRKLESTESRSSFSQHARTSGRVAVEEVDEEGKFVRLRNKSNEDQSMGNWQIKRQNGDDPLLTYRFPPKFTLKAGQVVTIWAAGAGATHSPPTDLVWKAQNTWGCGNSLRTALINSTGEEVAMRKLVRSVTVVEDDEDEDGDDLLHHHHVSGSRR

Our source for the binding values is paper PMC5120601.

Results are given in words; binding and its absence hold for the method and conditions named. In cells and extracts the contact can be indirect. Some binding calls cover weakened binding; strength is not graded here.

As to “lamin A (mature, of lamins A/C) (from UniProt P02545 1-646)”, the binding result in assay [1] is listed as “binds”.

As for “lamin C (of lamins A/C) (from UniProt P02545-2 1-572)”, the binding entry in assay [1] was “binds”.

On to “proliferating cell nuclear antigen (PCNA) (from UniProt P12004 1-261)”, for which the binding result (with GST-lamin A; in assay [2]; in assay [3]; in assay [4]) was “binds” each time.

B1: USP3 (protein, UniProt Q9Y6I4 1-520)
chain: MECPHLSSSVCIAPDSAKFPNGSPSSWCCSVCRSNKSPWVCLTCSSVHCGRYVNGHAKKHYEDAQVPLTNHKKSEKQDKVQHTVCMDCSSYSTYCYRCDDFVVNDTKLGLVQKVREHLQNLENSAFTADRHKKRKLLENSTLNSKLLKVNGSTTAICATGLRNLGNTCFMNAILQSLSNIEQFCCYFKELPAVELRNGKTAGRRTYHTRSQGDNNVSLVEEFRKTLCALWQGSQTAFSPESLFYVVWKIMPNFRGYQQQDAHEFMRYLLDHLHLELQGGFNGVSRSAILQENSTLSASNKCCINGASTVVTAIFGGILQNEVNCLICGTESRKFDPFLDLSLDIPSQFRSKRSKNQENGPVCSLRDCLRSFTDLEELDETELYMCHKCKKKQKSTKKFWIQKLPKVLCLHLKRFHWTAYLRNKVDTYVEFPLRGLDMKCYLLEPENSGPESCLYDLAAVVVHHGSGVGSGHYTAYATHEGRWFHFNDSTVTLTDEETVVKAKAYILFYVEHQAKAGSDKL
In the case of B1, the binding entry with GST-lamin A is on record as “no binding”.
